# Measurements reported in PubChem BioAssay AID248 (DTP/NCI, 2004).
# The list shows only some results of the screen, not a fair sample: its compounds were picked by chemical class. Not every dose and run of a compound is shown. T/C is the treated group as % of the vehicle group. Some entries give survivors of the animals treated and no T/C: the source holds a T/C of zero for them, seemingly a mark for toxic or unscored doses. Some survivor counts are full or nearly so, which does not show that the dose was tolerated: survival well below the control is almost never listed, so the zero probably covers shortened survival too. Counts of survivors are from the toxicity check (mostly the fifth day) where no day follows; animals may have died later. Schedule codes are those of the source, taken here to give the interval after Q, in days (D) or hours (H), and the number of doses after X. Where survival is the endpoint, the PubChem record calls one and a half times the control and up active, and a quarter to a half above the control has no call in these data; cut-offs in other NCI protocols can differ. Brackets with × say how often a value occurs here. Some entries hold several experiments; the values are given in rising order. Some schedule codes hold Z or #, which are not explained here. Some T/C values are marked as having no survivor count here; that says nothing about deaths at the dose. Some T/C values are followed by the survivors on the day toxicity was checked, most often the fifth; where neither a count nor a note follows, no animal had died by that day.
# Test system: L1210 leukemia ip in BDF1 mice, survival T/C
# Test: NCI In Vivo Anticancer Drug Screen. Data for tumor model L1210 Leukemia (intraperitoneal) in B6D2F1 (BDF1) mice
# Conditions: T/C endpoint: mean survival time, higher T/C = longer survival
# [1] = dose: 100.0 mg/kg/injection, schedule: Q04DX003 (ip), vehicle: Klucel (hydroxypropylcellulose) (HPC)
# [2] = dose: 200.0 mg/kg/injection, schedule: Q04DX003 (ip), vehicle: Klucel (hydroxypropylcellulose) (HPC)
# [3] = dose: 400.0 mg/kg/injection, schedule: Q04DX003 (ip), vehicle: Klucel (hydroxypropylcellulose) (HPC)
# [4] = dose: 13.0 mg/kg/injection, schedule: Q01DX Z (ip), vehicle: methylcellulose (MC)
# [5] = dose: 400.0 mg/kg/injection, schedule: Q01DX009 (ip), vehicle: carboxymethylcellulose (CMC)
# [6] = dose: 100.0 mg/kg/injection, schedule: Q01DX009 (ip), vehicle: saline with Tween-80
# [7] = dose: 100.0 mg/kg/injection, schedule: Q01DX009 (ip), vehicle: Klucel (hydroxypropylcellulose) (HPC)
# [8] = dose: 200.0 mg/kg/injection, schedule: Q01DX009 (ip), vehicle: Klucel (hydroxypropylcellulose) (HPC)
# [9] = dose: 400.0 mg/kg/injection, schedule: Q01DX009 (ip), vehicle: Klucel (hydroxypropylcellulose) (HPC)
structure (smiles),measurement,setting,value
ClCCN1Cc2ccccc2CCc2ccccc2C1,T/C,[1],112 % of control
same,T/C,[2],107 % of control
same,survivor count,[3],3 of 6
Cc1c(F)c(-c2c(F)c(C)c([N+](=O)[O-])c(C)c2[N+](=O)[O-])c([N+](=O)[O-])c(C)c1[N+](=O)[O-],T/C,"dose: 100.0 mg/kg/injection, schedule: Q01DX001 (ip), vehicle: Klucel (hydroxypropylcellulose) (HPC)",100 % of control
same,T/C,[1],101 % of control
same,T/C,"dose: 200.0 mg/kg/injection, schedule: Q01DX001 (ip), vehicle: Klucel (hydroxypropylcellulose) (HPC)",97 % of control
same,T/C,[2],90 % of control
same,T/C,"dose: 400.0 mg/kg/injection, schedule: Q01DX001 (ip), vehicle: Klucel (hydroxypropylcellulose) (HPC)",100 % of control
same,T/C,[3],87 % of control
Nc1ccc([As](=O)(O)O)c(O)c1,T/C,"dose: 100.0 mg/kg/injection, schedule: Q01DX003 (ip), vehicle: Klucel (hydroxypropylcellulose) (HPC)",97 % of control
same,T/C,"dose: 200.0 mg/kg/injection, schedule: Q01DX003 (ip), vehicle: Klucel (hydroxypropylcellulose) (HPC)",100 % of control [5 of 6 alive]
same,survivor count,"dose: 400.0 mg/kg/injection, schedule: Q01DX003 (ip), vehicle: Klucel (hydroxypropylcellulose) (HPC)",3 of 6
C[n+]1ccc(N(CCCl)CCCl)cc1,T/C,"dose: 1.25 mg/kg/injection, schedule: Q01DX Z (ip), vehicle: saline",103 % of control
same,T/C,"dose: 2.5 mg/kg/injection, schedule: Q01DX Z (ip), vehicle: saline",101 % of control
same,T/C,"dose: 5.0 mg/kg/injection, schedule: Q01DX Z (ip), vehicle: saline",104 % of control
same,T/C,"dose: 10.0 mg/kg/injection, schedule: Q01DX Z (ip), vehicle: saline",103 % of control
CC[O+](CC)CC,survivor count,"dose: 50.0 mg/kg/injection, schedule: Q04DX002 (ip), vehicle: saline",3 of 3
same,survivor count,"dose: 100.0 mg/kg/injection, schedule: Q04DX002 (ip), vehicle: saline",0 of 3
same,survivor count,"dose: 200.0 mg/kg/injection, schedule: Q04DX002 (ip), vehicle: saline",0 of 3
N/C(=N\[N+](=O)[O-])N(CCO[N+](=O)[O-])N=O,T/C,"dose: 2.7 mg/kg/injection, schedule: Q01DX Z (ip), vehicle: methylcellulose (MC)",138 % of control [survivor count not shown]
same,T/C,"dose: 4.0 mg/kg/injection, schedule: Q01DX Z (ip), vehicle: methylcellulose (MC)",166 % of control [survivor count not shown]
same,T/C,"dose: 6.0 mg/kg/injection, schedule: Q01DX Z (ip), vehicle: methylcellulose (MC)",141 % of control [survivor count not shown]
same,T/C,"dose: 9.0 mg/kg/injection, schedule: Q01DX Z (ip), vehicle: methylcellulose (MC)",135 % of control [survivor count not shown]
same,T/C,[4],151 % of control [survivor count not shown]
same,T/C,"dose: 20.0 mg/kg/injection, schedule: Q01DX Z (ip), vehicle: methylcellulose (MC)",133 % of control [survivor count not shown]
same,T/C,"dose: 30.0 mg/kg/injection, schedule: Q01DX Z (ip), vehicle: methylcellulose (MC)",125 % of control [survivor count not shown]
CCOP(=O)(NC(=O)NN1CCCCC1)OCC,T/C,"dose: 100.0 mg/kg/injection, schedule: Q01DX001 (ip), vehicle: carboxymethylcellulose (CMC)",93 % of control
same,T/C,"dose: 100.0 mg/kg/injection, schedule: Q01DX009 (ip), vehicle: carboxymethylcellulose (CMC)",100 % of control (2×)
same,T/C,"dose: 100.0 mg/kg/injection, schedule: Q04DX002 (ip), vehicle: carboxymethylcellulose (CMC)",98 % of control
same,T/C,"dose: 100.0 mg/kg/injection, schedule: Q04DX003 (ip), vehicle: carboxymethylcellulose (CMC)",90 % of control
same,T/C,"dose: 200.0 mg/kg/injection, schedule: Q01DX001 (ip), vehicle: carboxymethylcellulose (CMC)",88 % of control
same,T/C,"dose: 200.0 mg/kg/injection, schedule: Q01DX009 (ip), vehicle: carboxymethylcellulose (CMC)",100 and 115 % of control
same,T/C,"dose: 200.0 mg/kg/injection, schedule: Q04DX002 (ip), vehicle: carboxymethylcellulose (CMC)",88 % of control
same,T/C,"dose: 200.0 mg/kg/injection, schedule: Q04DX003 (ip), vehicle: carboxymethylcellulose (CMC)",96 % of control
same,T/C,"dose: 400.0 mg/kg/injection, schedule: Q01DX001 (ip), vehicle: carboxymethylcellulose (CMC)",108 % of control [5 of 6 alive]
same,T/C,[5],98 % of control
same,survivor count,[5],0 of 3
same,T/C,"dose: 400.0 mg/kg/injection, schedule: Q04DX002 (ip), vehicle: carboxymethylcellulose (CMC)",94 % of control
same,T/C,"dose: 400.0 mg/kg/injection, schedule: Q04DX003 (ip), vehicle: carboxymethylcellulose (CMC)",95 % of control
O=[N+]([O-])c1cccc(-c2no[n+]([O-])c2-c2cccc([N+](=O)[O-])c2)c1,T/C,[6],90 % of control
same,T/C,"dose: 200.0 mg/kg/injection, schedule: Q01DX009 (ip), vehicle: saline with Tween-80",92 % of control
same,survivor count,"dose: 400.0 mg/kg/injection, schedule: Q01DX009 (ip), vehicle: saline with Tween-80",6 of 6
CC(C)P1(=S)OCC(C(C)(C)C)CO1 (stereo not drawn),T/C,"dose: 12.5 mg/kg/injection, schedule: Q04DX003 (ip), vehicle: Klucel (hydroxypropylcellulose) (HPC)",100 % of control [survivor count not shown]
same,T/C,"dose: 25.0 mg/kg/injection, schedule: Q04DX003 (ip), vehicle: Klucel (hydroxypropylcellulose) (HPC)",100 % of control [survivor count not shown]
same,T/C,"dose: 50.0 mg/kg/injection, schedule: Q04DX003 (ip), vehicle: Klucel (hydroxypropylcellulose) (HPC)",98 % of control [survivor count not shown]
NC(=O)Nc1ccc([As](=O)(O)O)cc1,T/C,[7],92 % of control [5 of 6 alive]
same,T/C,[8],98 % of control
same,T/C,[9],92 % of control
S=P(Cl)(Oc1ccccc1)c1ccccc1 (stereo not drawn),T/C,"dose: 25.0 mg/kg/injection, schedule: Q01DX009 (ip), vehicle: Klucel (hydroxypropylcellulose) (HPC)",101 % of control
same,T/C,"dose: 50.0 mg/kg/injection, schedule: Q01DX009 (ip), vehicle: Klucel (hydroxypropylcellulose) (HPC)",97 % of control
same,T/C,[7],90 and 92 % of control
same,T/C,"dose: 100.0 mg/kg/injection, schedule: Q04DX002 (ip), vehicle: Klucel (hydroxypropylcellulose) (HPC)",113 % of control
same,survivor count,[8],1 of 3
same,T/C,"dose: 200.0 mg/kg/injection, schedule: Q04DX002 (ip), vehicle: Klucel (hydroxypropylcellulose) (HPC)",100 % of control
same,survivor count,[9],0 of 3
same,T/C,"dose: 400.0 mg/kg/injection, schedule: Q04DX002 (ip), vehicle: Klucel (hydroxypropylcellulose) (HPC)",107 % of control
COc1cc(OC)c(Nc2c([N+](=O)[O-])cc([N+](=O)[O-])cc2[N+](=O)[O-])cc1Cl,T/C,"dose: 100.0 mg/kg/injection, schedule: Q01DX009 (ip), vehicle: saline",91 % of control
same,T/C,"dose: 200.0 mg/kg/injection, schedule: Q01DX009 (ip), vehicle: saline",93 % of control
same,T/C,"dose: 400.0 mg/kg/injection, schedule: Q01DX009 (ip), vehicle: saline",96 % of control
S=P1(N(CCCl)CCCl)NCCCO1 (stereo not drawn),T/C,[4],100 % of control
same,T/C,"dose: 26.0 mg/kg/injection, schedule: Q01DX Z (ip), vehicle: methylcellulose (MC)",96 % of control
same,T/C,"dose: 53.0 mg/kg/injection, schedule: Q01DX Z (ip), vehicle: methylcellulose (MC)",99 % of control
same,T/C,"dose: 116.0 mg/kg/injection, schedule: Q01DX Z (ip), vehicle: methylcellulose (MC)",100 % of control [4 of 6 alive]
CC(Cl)CSc1ccccc1 (stereo not drawn),T/C,[6],109 % of control
COc1ccc(P(=S)(Cl)Cl)cc1,T/C,[1],89 % of control [5 of 6 alive]
same,T/C,[2],93 % of control [5 of 6 alive]
same,T/C,[3],93 % of control
Cc1cccc(OP(=S)(Cl)Oc2cccc(C)c2)c1,T/C,[7],101 % of control
same,T/C,[8],100 % of control
same,survivor count,[9],0 of 6
S=P(Cl)(Cl)Oc1ccccc1,T/C,"dose: 6.25 mg/kg/injection, schedule: Q01DX009 (ip), vehicle: saline",96 % of control
same,T/C,"dose: 12.5 mg/kg/injection, schedule: Q01DX009 (ip), vehicle: saline",97 % of control
same,T/C,"dose: 25.0 mg/kg/injection, schedule: Q01DX009 (ip), vehicle: saline",105 % of control
